Test results published in US20160263072A1, “MONOACYLGLYCEROLS AND FAT-SOLUBLE NUTRIENTS FOR USE IN THE TREATMENT OF MALABSORPTION HAVING A NON-MECHANICAL BASIS” (NESTEC S.A., priority 2013, published 2016).
At least one compound was matched to its structure with a doubt left.

Assay: Clinical study: delivery of EPA by sn-1(3) MAG vs fish oil (TAG) under XENICAL (ORLISTAT)-induced lipid maldigestion
Type: in vivo
Conditions: humans, with XENICAL; vs fish oil and XENICAL; p=0.0125
Procedure: This clinical study compared the efficacy of sn-1(3) MAG and fish oil (TAG) in delivering EPA in humans under lipid maldigestion conditions induced by XENICAL® (ORLISTAT). The comparison was tested in volunteers having a BMI of 37-40 kg/m^2 and treated with ORLISTAT® to induce lipid maldigestion or not treated with XENICAL® (ORLISTAT). The primary objective was to assess accretion of EPA in erythrocytes over 21 days when consumed as fish oil (TAG) or sn-1(3) MAG. The secondary objectives were to assess accretion of EPA in plasma over 21 days and also to assess the pharmacokinetics of EPA after an acute dose either in the form of sn-1(3) MAG or TAG (AUC in chylomicrons over 10 hours postprandial).

SMILES: CC/C=C\C/C=C\C/C=C\C/C=C\C/C=C\CCCC(=O)OC[C@@H](O)CO [sn-1(3) MAG, 1,3 MAG-EPA]
- acute effect: EPA in chylomicrons, AUC over 10 hours postprandial: statistically significant
